Measurements from US20250109177A1, “EVOLVED PROTEIN DEGRONS” (The Broad Institute, Inc., priority 2022, published 2025).
No constants are given. Whether binding was seen depends on the method and setting. Some binding calls cover weakened binding; strength is not graded here. Sequences can lack the tags named with a protein.

The chains behind the UniProt entries cited, without tags or fusion partners. Where a name states a change or a piece, a line headed by the entry shows the natural chain unless it says otherwise.
UniProt Q96SW2: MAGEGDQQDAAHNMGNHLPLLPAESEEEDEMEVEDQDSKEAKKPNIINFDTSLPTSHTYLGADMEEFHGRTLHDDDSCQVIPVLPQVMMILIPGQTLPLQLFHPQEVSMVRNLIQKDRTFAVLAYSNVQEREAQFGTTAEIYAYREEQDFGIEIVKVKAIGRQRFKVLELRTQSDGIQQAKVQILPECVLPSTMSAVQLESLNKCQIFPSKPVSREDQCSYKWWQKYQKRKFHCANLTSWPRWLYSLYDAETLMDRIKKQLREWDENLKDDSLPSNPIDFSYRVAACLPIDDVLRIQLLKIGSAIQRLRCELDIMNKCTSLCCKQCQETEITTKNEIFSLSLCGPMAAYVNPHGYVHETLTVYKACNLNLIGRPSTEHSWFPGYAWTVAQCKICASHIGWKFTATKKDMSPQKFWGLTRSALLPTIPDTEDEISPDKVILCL
UniProt Q16531: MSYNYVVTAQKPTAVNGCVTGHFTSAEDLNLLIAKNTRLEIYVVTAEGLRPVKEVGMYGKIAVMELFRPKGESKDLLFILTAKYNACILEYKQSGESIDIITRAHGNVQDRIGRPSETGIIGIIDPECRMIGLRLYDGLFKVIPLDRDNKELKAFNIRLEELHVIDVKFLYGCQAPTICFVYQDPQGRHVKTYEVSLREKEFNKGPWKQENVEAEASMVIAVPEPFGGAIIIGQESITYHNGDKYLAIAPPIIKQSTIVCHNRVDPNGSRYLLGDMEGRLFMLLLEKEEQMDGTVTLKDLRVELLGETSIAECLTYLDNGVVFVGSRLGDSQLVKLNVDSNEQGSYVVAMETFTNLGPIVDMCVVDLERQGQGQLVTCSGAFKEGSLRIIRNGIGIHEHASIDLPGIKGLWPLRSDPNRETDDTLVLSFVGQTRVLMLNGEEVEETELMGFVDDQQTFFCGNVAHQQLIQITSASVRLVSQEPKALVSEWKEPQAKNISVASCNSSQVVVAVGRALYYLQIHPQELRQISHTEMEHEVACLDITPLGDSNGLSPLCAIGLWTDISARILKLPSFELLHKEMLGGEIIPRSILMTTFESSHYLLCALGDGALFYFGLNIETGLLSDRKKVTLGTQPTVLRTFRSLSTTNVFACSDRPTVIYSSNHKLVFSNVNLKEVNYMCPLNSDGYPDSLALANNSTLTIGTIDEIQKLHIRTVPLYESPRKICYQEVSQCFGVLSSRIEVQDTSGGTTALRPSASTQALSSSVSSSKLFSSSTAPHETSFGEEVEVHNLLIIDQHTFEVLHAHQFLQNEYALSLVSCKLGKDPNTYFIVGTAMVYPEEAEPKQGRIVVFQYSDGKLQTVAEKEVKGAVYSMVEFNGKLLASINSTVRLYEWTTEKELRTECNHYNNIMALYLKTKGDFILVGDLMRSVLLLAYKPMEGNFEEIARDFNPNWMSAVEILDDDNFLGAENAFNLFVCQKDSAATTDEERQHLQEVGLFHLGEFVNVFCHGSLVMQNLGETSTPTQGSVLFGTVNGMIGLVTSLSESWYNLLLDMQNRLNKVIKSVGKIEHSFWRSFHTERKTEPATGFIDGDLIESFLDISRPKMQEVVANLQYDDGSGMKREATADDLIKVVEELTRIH

Legend:
[1] = biological target: T1, DDB1·CRBN precomplexed with PT-179 (human) (UniProt Q96SW2+Q16531); experiment: BLI, immobilized MBP-degron, DDB1·CRBN precomplexed with PT-179
[2] = biological target: T2, DDB1·CRBN precomplexed with pomalidomide (human) (UniProt Q96SW2+Q16531); experiment: BLI, immobilized MBP-degron, DDB1·CRBN precomplexed with pomalidomide
[3] = biological target: T1, DDB1·CRBN precomplexed with PT-179 (human); experiment: bio-layer interferometry, immobilized MBP-degron, DDB1·CRBN precomplexed with PT-179
[4] = biological target: T2, DDB1·CRBN precomplexed with pomalidomide (human); experiment: bio-layer interferometry, immobilized MBP-degron, DDB1·CRBN precomplexed with pomalidomide

binding [1]: binds
binding [2]: binds
binding [3]: binds
binding [4]: binds
B1: MBP-SD40 (minimal evolved degron SD40 fused to maltose binding protein) (designed binder, not shown: large carriers)
chain: LLLFCPICGFTCRQKGNLLRHINLHTGEKLFKYHLY
